{"sequences": {"note": "The chains behind the UniProt entries cited, without tags or fusion partners.", "UniProt Q13263": "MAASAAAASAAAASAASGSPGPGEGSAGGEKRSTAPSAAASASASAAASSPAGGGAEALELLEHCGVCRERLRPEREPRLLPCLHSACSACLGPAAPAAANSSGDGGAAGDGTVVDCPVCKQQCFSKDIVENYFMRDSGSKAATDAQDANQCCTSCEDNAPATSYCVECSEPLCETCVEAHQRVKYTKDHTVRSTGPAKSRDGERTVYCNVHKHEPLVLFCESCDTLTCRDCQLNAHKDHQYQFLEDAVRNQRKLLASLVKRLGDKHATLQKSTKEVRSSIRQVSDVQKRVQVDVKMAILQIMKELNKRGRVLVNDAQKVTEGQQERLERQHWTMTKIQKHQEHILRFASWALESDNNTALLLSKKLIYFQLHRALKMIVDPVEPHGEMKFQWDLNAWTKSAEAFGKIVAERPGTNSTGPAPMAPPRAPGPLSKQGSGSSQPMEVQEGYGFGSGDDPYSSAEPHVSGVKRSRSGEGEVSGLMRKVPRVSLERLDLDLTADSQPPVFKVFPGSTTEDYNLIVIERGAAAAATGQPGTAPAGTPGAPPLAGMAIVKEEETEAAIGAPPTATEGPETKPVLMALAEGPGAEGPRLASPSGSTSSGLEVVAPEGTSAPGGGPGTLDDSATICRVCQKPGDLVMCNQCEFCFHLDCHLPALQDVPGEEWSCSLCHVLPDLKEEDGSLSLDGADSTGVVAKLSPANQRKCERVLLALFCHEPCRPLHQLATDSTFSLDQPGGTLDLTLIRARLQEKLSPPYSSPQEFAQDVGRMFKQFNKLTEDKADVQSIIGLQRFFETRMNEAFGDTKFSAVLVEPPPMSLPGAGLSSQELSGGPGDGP"}, "source": "paper PMC7984809", "biological_target": "T1, GFP-TRDMT1 (UniProt O14717)", "T1 sequence": "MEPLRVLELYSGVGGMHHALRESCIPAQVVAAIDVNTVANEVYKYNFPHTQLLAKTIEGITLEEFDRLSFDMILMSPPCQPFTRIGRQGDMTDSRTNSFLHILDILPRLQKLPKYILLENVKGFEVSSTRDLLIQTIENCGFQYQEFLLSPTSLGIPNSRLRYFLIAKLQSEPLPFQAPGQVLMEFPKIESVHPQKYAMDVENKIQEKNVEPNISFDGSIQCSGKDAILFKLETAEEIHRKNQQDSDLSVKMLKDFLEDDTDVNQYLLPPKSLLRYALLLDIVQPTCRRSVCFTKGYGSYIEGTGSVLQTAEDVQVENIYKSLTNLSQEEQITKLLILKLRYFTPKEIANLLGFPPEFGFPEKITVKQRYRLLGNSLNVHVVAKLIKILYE", "assay": "affinity purification with mass spectrometry; GFP-TRDMT1 captured from whole cell lysates of stably expressing Flp-in 293 cells by anti-GFP nanobody on magnetic dynabeads; cells with or without 2 mM H2O2 for 3 h; 20 mM HEPES, 0.5% TritonX-100, 150 or 300 mM NaCl; wild-type 293 cells as control; LC/MS", "note": "Results are given in words; binding and its absence hold for the method and conditions named. In cells and extracts the contact can be indirect. These calls come from enrichment with a bait or labelling near it, and not all partners need be listed. Sequences can lack the tags named with a protein.", "data": [{"substance": "TRIM28 (from UniProt Q13263 1-835)", "values": [{"measurement": "binding", "value": "binds"}]}]}
